Our source for the binding values is doi:10.1101/2023.07.19.549485.

No constants are given. Whether binding was seen depends on the method and setting. In cells and extracts the contact can be indirect. A yes stands for co-enrichment or nearness to the bait. Other partners may have been found.

B1: ALBA3 (protein, UniProt Q8IJX8 1-107)
chain: MASTEEVSQERSENSIQVSMTKKPTFYARIGKRMFTGNEEKNPFDEVIITGLGNATKIAIGAASIMEKEDIGQIVKVQTAYFSSDRINRRIPKITIVLKKHPDFVAN

The target of this test is MD3-GFP-BirA fusion protein (P. falciparum) (UniProt O97271). Kind of test: proximity labelling.
On to “RNF1 (RING-finger domain zinc finger protein) (from UniProt O97260)”, for which the binding result is “binds”.

Turning to “polyadenylate-binding protein PABP1 (from UniProt Q8I5H4)”, the binding result is “binds”.

Regarding B1, the binding entry was “binds”.
